Among the data in PubChem BioAssay AID248 (DTP/NCI, 2004) are survivor count values, retold here.

For the assay, the system named is L1210 leukemia ip in BDF1 mice, survival T/C. Put plainly: NCI In Vivo Anticancer Drug Screen. Data for tumor model L1210 Leukemia (intraperitoneal) in B6D2F1 (BDF1) mice. As to conditions: T/C endpoint: mean survival time, higher T/C = longer survival.

The list shows only some results of the screen, not a fair sample: it is rich in T/C values a quarter to a half above the control, in often repeated tests (any T/C) and in doses without a T/C. Further doses and runs are listed elsewhere. T/C gives the treated animals as a percentage of the vehicle group. Some entries give survivors of the animals treated and no T/C: the source holds a T/C of zero for them, seemingly a mark for toxic or unscored doses. Counts of survivors are from the toxicity check (mostly the fifth day) where no day follows; animals may have died later. Schedules are NCI's codes, taken here to give the interval after Q, in days (D) or hours (H), and the number of doses after X.

On to `CCCOC1=C(Br)C(=O)c2ccccc2C1=O`, for which the survivor count runs as follows: (dose: 60.0 mg/kg/injection, schedule: Q01DX001 (ip), vehicle: carboxymethylcellulose (CMC)) 1 of 6; (dose: 75.0 mg/kg/injection, schedule: Q01DX001 (ip), vehicle: carboxymethylcellulose (CMC)) 0 of 6; (dose: 150.0 mg/kg/injection, schedule: Q01DX001 (ip), vehicle: carboxymethylcellulose (CMC)) 2 of 6; (dose: 300.0 mg/kg/injection, schedule: Q01DX001 (ip), vehicle: carboxymethylcellulose (CMC)) 1 of 6.
Turning to `CCOP(=O)(OCC)Oc1c(Cl)c(Cl)c(O)c(Cl)c1Cl`, the survivor count (dose: 400.0 mg/kg/injection, schedule: Q04DX002 (ip), vehicle: saline with Tween-80) is 0 of 3.
